The record followed here is article doi:10.1101/2024.12.02.626492.

Sequences of proteins named here, by UniProt entry; tags and fusion partners are left off. A change or cut given only in a name is not applied to a line headed by its entry.
UniProt P41352: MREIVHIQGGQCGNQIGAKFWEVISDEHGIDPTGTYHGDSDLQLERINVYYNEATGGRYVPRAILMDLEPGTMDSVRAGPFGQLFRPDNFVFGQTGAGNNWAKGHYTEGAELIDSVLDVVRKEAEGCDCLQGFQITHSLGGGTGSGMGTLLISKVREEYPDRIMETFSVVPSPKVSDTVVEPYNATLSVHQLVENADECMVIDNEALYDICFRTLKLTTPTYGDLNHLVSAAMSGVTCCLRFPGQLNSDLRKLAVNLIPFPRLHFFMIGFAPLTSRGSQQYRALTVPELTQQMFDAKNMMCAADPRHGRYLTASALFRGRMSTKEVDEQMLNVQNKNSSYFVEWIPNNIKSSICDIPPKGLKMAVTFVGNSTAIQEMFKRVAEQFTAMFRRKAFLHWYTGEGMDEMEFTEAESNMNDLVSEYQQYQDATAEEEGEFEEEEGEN
UniProt P41351: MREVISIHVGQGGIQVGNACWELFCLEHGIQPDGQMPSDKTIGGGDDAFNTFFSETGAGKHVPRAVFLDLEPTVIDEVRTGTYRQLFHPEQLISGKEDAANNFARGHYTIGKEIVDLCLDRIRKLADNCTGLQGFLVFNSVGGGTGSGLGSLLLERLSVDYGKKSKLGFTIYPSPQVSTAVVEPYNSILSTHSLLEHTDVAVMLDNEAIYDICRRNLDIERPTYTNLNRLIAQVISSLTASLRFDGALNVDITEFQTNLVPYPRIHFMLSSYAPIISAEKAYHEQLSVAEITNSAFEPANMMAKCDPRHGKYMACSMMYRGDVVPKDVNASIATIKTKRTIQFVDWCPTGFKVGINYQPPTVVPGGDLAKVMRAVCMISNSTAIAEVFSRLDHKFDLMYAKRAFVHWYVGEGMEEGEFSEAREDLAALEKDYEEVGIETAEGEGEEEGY
UniProt I7M5Z8: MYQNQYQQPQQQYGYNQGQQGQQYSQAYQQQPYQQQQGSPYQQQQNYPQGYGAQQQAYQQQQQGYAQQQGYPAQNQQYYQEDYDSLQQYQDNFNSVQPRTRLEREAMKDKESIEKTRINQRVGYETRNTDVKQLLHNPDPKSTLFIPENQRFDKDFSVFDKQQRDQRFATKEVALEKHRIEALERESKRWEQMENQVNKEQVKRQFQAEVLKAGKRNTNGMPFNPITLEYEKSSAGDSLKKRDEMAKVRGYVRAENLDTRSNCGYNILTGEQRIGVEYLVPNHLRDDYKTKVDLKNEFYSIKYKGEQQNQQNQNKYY
UniProt I7M0H4: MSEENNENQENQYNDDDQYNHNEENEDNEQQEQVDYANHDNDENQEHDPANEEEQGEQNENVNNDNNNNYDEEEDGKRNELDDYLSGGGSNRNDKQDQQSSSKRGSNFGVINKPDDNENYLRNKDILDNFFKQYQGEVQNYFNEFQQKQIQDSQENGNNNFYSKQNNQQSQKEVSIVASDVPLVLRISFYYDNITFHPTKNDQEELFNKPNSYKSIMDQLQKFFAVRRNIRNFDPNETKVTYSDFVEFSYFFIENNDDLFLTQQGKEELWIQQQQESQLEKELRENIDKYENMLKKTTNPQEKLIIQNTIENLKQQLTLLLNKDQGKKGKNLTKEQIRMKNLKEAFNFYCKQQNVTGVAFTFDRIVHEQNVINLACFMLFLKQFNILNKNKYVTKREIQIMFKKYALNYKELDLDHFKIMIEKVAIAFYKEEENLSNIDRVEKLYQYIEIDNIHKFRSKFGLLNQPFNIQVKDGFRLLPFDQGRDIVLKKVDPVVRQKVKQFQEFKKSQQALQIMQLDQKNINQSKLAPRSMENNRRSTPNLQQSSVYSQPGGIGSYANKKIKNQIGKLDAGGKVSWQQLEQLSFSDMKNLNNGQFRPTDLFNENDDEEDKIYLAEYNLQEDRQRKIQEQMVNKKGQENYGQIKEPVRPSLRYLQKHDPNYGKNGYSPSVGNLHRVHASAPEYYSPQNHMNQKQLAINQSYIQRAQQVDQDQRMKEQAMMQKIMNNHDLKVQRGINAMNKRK
UniProt Q22DM0: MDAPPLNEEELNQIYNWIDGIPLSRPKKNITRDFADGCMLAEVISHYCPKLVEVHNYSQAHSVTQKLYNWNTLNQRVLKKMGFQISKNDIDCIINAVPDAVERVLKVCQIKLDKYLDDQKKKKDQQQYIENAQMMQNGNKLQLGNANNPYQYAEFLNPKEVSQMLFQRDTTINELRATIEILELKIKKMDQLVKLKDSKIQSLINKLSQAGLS

Assay [1] deals with β-tubulin (Tetrahymena thermophila, tip central pair microtubules) (Tetrahymena thermophila (endogenous in cilia)) (UniProt P41352). The experiment in a line: cryo-EM structure; single-particle cryo-EM of the native tip central pair from demembranated, ATP-split axonemes of Tetrahymena CU428 cilia; 8-nm repeat, overall 3.9 Å, local maps 3.6 to 4.4 Å; proteins assigned with DomainFit and AlphaFold2 models.

Assay [2] concerns the target α-tubulin (Tetrahymena thermophila, tip central pair microtubules) (Tetrahymena thermophila (endogenous in cilia)) (UniProt P41351). Described as above.

No constants are given. Whether binding was seen depends on the method and setting. Binding calls can cover weak binding; strength is not graded here.

Regarding “CFAP213 (Tetrahymena thermophila) (from UniProt I7M5Z8)”, the binding entry in assay [1] is recorded as “binds”.

On to “TPPP-like protein 1 (TLP1) (from UniProt I7M0H4)”, for which the binding result in assay [2] and in assay [1] was “binds” throughout.

Consider “SPEF1A (Tetrahymena thermophila) (from UniProt Q22DM0)”, for which the binding result in assay [2] and in assay [1] was “binds” in each case.
